From US10457707B2 (priority 2015, dated 2019)

Test: general procedure: solution-phase peptide synthesis; TPTU/HOBT/DIEA; HATU/DIEA
Details: late stage modification step

(S)-2-(3-(3-chlorophenyl)ureido)-N-((2R,6S,8aS,14aS,20S,23aS)-2,6-dimethyl-5,8,14,19,23-pentaoxooctadecahydro-1H,5H,14H,19H-pyrido[2,1-i]dipyrrolo[2,1-c:2′,1′-l][1]oxa[4,7,10,13]tetraazacyclohexadecin-20-yl)-3-phenylpropanamide
step yield: 24.9%

(S)—N-((2R,6S,8aS,14aS,20S,23aS)-2,6-dimethyl-5,8,14,19,23-pentaoxooctadecahydro-1H,5H,14H,19H-pyrido[2,1-i]dipyrrolo[2,1-c:2′,1′-l][1]oxa[4,7,10,13]tetraazacyclohexadecin-20-yl)-2-(3-(1-methylindolin-5-yl)ureido)-3-phenylpropanamide
step yield: 44.1%

(S)-3-(3,5-difluorophenyl)-2-(3-(4-(trifluoromethoxy)phenyl)ureido)-N-((2R,6S,8aS,14aS,20S,21S,23aS)-2,6,21-trimethyl-5,8,14,19,23-pentaoxooctadecahydro-1H,5H,14H,19H-pyrido[2,1-i]dipyrrolo[2,1-c:2′,1′-L][1]oxa[4,7,10,13]tetraazacyclohexadecin-20-yl)propanamide
step yield (on macrocycle C): 68.3%

(S)-3-(3,5-difluorophenyl)-2-(3-(1-methylindolin-6-yl)ureido)-N-((2R,6S,8aS,14aS,20S,21S,23aS)-2,6,21-trimethyl-5,8,14,19,23-pentaoxooctadecahydro-1H,5H,14H,19H-pyrido[2,1-i]dipyrrolo[2,1-c:2′,1′-l][1]oxa[4,7,10,13]tetraazacyclo-hexadecin-20-yl)propanamide
step yield: 24.7%

(S)-3-(3,5-difluorophenyl)-N-((2R,6S,8aS,14aS,20S,23aS)-2-fluoro-6-methyl-5,8,14,19,23-pentaoxooctadecahydro-1H,5H,14H,19H-pyrido[2,1-i]dipyrrolo[2,1-c:2′,1′-l][1]oxa[4,7,10,13]tetraazacyclohexadecin-20-yl)-2-(3-(p-tolyl)ureido)propanamide
step yield (on macrocycle C): 17.9%

(S)-3-(3,5-difluorophenyl)-2-(3-(4-(trifluoromethyl)phenyl)ureido)-N-((2R,6S,8aS,14aS,20S,21S,23aS)-2,6,21-trimethyl-5,8,14,19,23-pentaoxooctadecahydro-1H,5H,14H,19H-pyrido[2,1-i]dipyrrolo[2,1-c:2′,1′-l][1]oxa[4,7,10,13]tetraazacyclohexadecin-20-yl)propanamide
step yield: 33%

sodium (2R,6S,8aS,14aS,16R,20S,21S,23aS)-20-((S)-3-(3,5-difluorophenyl)-2-(3-(p-tolyl)ureido)propanamido)-2,6,21-trimethyl-5,8,14,19,23-pentaoxooctadecahydro-1H,5H,14H,19H-pyrido[2,1-i]dipyrrolo[2,1-c:2′,1′-l][1]oxa[4,7,10,13]
step yield (sodium salt): about 79%

(S)-2-(3-(benzo[d][1,3]dioxol-5-yl)ureido)-3-(3,5-difluorophenyl)-N-((2R,6S,9S,11aS,17S,18S,20aS)-9-((R)-1-hydroxyethyl)-2,6,10,18-tetramethyl-5,8,11,16,20-pentaoxohexadecahydro-1H,5H,16H-dipyrrolo[2,1-c:2′,1′-l][1]oxa[4,7,10,13]tetraazacyclohexadecin-17-yl)propanamide
step yield (on macrocycle C): 84%

(S)-3-(3,5-difluorophenyl)-2-(3-(4-ethylphenyl)ureido)-N-((2R,6S,9S,11aS,17S,18S,20aS)-9-((R)-1-hydroxyethyl)-2,6,10,18-tetramethyl-5,8,11,16,20-pentaoxohexadecahydro-1H,5H,16H-dipyrrolo[2,1-c:2′,1′-l][1]oxa[4,7,10,13]tetraazacyclohexadecin-17-yl)propanamide
step yield (on macrocycle C): 65.1%

(S)-3-(3,5-difluorophenyl)-2-(3-(p-tolyl)ureido)-N-((2R,6S,8aS,14aS,20S,21S,23aS)-2,6,21-trimethyl-5,8,14,19,23-pentaoxooctadecahydro-1H,5H,14H,19H-pyrido[2,1-i]dipyrrolo[2,1-c:2′,1′-l][1]oxa[4,7,10,13]tetraazacyclohexadecin-20-yl)propanamide
step yield: 39% | step yield (on macrocycle C): 52.2%

(S)—N-((2R,6S,8aS,14aS,20S,23aS)-2,6-dimethyl-5,8,14,19,23-pentaoxooctadecahydro-1H,5H,14H,19H-pyrido[2,1-i]dipyrrolo[2,1-c:2′,1′-l][1]oxa[4,7,10,13]tetraazacyclohexadecin-20-yl)-2-(3-(4-(dimethylamino)phenyl)ureido)-3-phenylpropanamide
step yield: 11.5%

(S)—N-((2R,6S,8aS,14aS,20S,23aS)-2,6-dimethyl-5,8,14,19,23-pentaoxooctadecahydro-1H,5H,14H,19H-pyrido[2,1-i]dipyrrolo[2,1-c:2′,1′-l][1]oxa[4,7,10,13]tetraazacyclohexadecin-20-yl)-2-(3-(3-methoxyphenyl)ureido)-3-phenylpropanamide
step yield: 25.8%

(S)-3-(3,5-difluorophenyl)-2-(3-(p-tolyl)ureido)-N-((6S,8aS,14aS,20S,23aS)-2,2,6-trimethyl-5,8,14,19,23-pentaoxooctadecahydro-1H,5H,14H,19H-pyrido[2,1-i]dipyrrolo[2,1-c:2′,1′-l][1]oxa[4,7,10,13]tetraazacyclohexadecin-20-yl)propanamide
step yield (on macrocycle C): 34.7%

(S)—N-((2R,6S,8aS,14aS,20S,23aS)-2,6-dimethyl-5,8,14,19,23-pentaoxooctadecahydro-1H,5H,14H,19H-pyrido[2,1-i]dipyrrolo[2,1-c:2′,1′-l][1]oxa[4,7,10,13]tetraazacyclohexadecin-20-yl)-3-phenyl-2-(3-phenylureido)propanamide
step yield: 40%

(S)-3-(3,5-difluorophenyl)-N-((2S,6S,9S,11aS,13R,17S,18S,20aS)-13-hydroxy-2,6,9,10,18-pentamethyl-5,8,11,16,20-pentaoxohexadecahydro-1H,5H,16H-dipyrrolo[2,1-c:2′,1′-l][1]oxa[4,7,10,13]tetraazacyclohexadecin-17-yl)-2-(3-(4-(trifluoromethoxy)phenyl)ureido)propanamide
step yield (on macrocycle C): 34.8%

(2S)-3-phenyl-2-(3-(4-(trifluoromethoxy)phenyl)ureido)-N-((6S,9S,11aS,17S)-6,9,10-trimethyl-5,8,11,16,20-pentaoxohexadecahydro-1H,5H,16H-dipyrrolo[2,1-c:2′,1′-l][1]oxa[4,7,10,13]tetraazacyclohexadecin-17-yl)propanamide
step yield: 40.6%

(S)-3-(3,5-difluorophenyl)-N-((2R,6S,8aS,14aS,20S,23aS)-2,6-dimethyl-5,8,14,19,23-pentaoxooctadecahydro-1H,5H,14H,19H-pyrido[2,1-i]dipyrrolo[2,1-c:2′,1′-l][1]oxa[4,7,10,13]tetraazacyclohexadecin-20-yl)-2-(3-(4-ethylphenyl)ureido)propanamide
step yield: 44%

(2R,6S,8aS,14aS,16R,20S,21S,23aS)-20-((S)-3-(3,5-difluorophenyl)-2-(3-(p-tolyl)ureido)propanamido)-2,6,21-trimethyl-5,8,14,19,23-pentaoxooctadecahydro-1H,5H,14H,19H-pyrido[2,1-i]dipyrrolo[2,1-c:2′,1′-l][1]oxa[4,7,10,13]
step yield: about 25%

(S)-2-(3-(benzo[d][1,3]dioxol-5-yl)ureido)-3-(3,5-difluorophenyl)-N-((2R,6S,8aS,14aS,20S,21S,23aS)-2,6,21-trimethyl-5,8,14,19,23-pentaoxooctadecahydro-1H,5H,14H,19H-pyrido[2,1-i]dipyrrolo[2,1-c:2′,1′-l][1]oxa[4,7,10,13]tetraazacyclohexadecin-20-yl)propanamide
step yield: 29% | step yield (on macrocycle C, run 1): 29% | step yield (on macrocycle C, run 2): 83%

(S)-3-(3,5-difluorophenyl)-N-((2S,6S,9S,11aS,17S,18S,20aS)-9-((R)-1-hydroxyethyl)-2,6,10,18-tetramethyl-5,8,11,16,20-pentaoxohexadecahydro-1H,5H,16H-dipyrrolo[2,1-c:2′,1′-l][1]oxa[4,7,10,13]tetraazacyclohexadecin-17-yl)-2-(3-(4-(trifluoromethoxy)phenyl)ureido)propanamide
step yield (on macrocycle C): 38.8%

(S)-3-(3,5-difluorophenyl)-2-(3-(4-ethylphenyl)ureido)-N-((2S,6S,9S,11aS,17S,18S,20aS)-9-((R)-1-hydroxyethyl)-2,6,10,18-tetramethyl-5,8,11,16,20-pentaoxohexadecahydro-1H,5H,16H-dipyrrolo[2,1-c:2′,1′-l][1]oxa[4,7,10,13]tetraazacyclohexadecin-17-yl)propanamide
step yield (on macrocycle C): 43%

(S)-2-(3-(benzo[d][1,3]dioxol-5-yl)ureido)-3-(3,5-difluorophenyl)-N-((6aS,12S,13S,15aS,17R,21S,23aS)-13,17,21-trimethyl-6,11,15,20,23-pentaoxooctadecahydro-6H,11H,15H-[1,4]oxazino[3,4-i]dipyrrolo[2,1-c:2′,1′-l][1]oxa[4,7,10,13]tetraazacyclohexadecin-12-yl)propanamide
step yield (on macrocycle C): 64.2%

(S)—N-((2S,6S,8aS,14aS,20S,23aS)-2,6-dimethyl-5,8,14,19,23-pentaoxooctadecahydro-1H,5H,14H,19H-pyrido[2,1-i]dipyrrolo[2,1-c:2′,1′-l][1]oxa[4,7,10,13]tetraazacyclohexadecin-20-yl)-3-phenyl-2-(3-(p-tolyl)ureido)propanamide
step yield (on macrocycle C): 43.6%

(S)—N-((2S,6S,8aS,14aS,20S,23aS)-2,6-dimethyl-5,8,14,19,23-pentaoxooctadecahydro-1H,5H,14H,19H-pyrido[2,1-i]dipyrrolo[2,1-c:2′,1′-l][1]oxa[4,7,10,13]tetraazacyclohexadecin-20-yl)-3-phenyl-2-(3-(4-(trifluoromethoxy)phenyl)ureido)propanamide
step yield (on macrocycle C): 39.9%

(S)-3-(3,5-difluorophenyl)-N-((2R,6S,8aS,14aS,20S,23aS)-2,6-dimethyl-5,8,14,19,23-pentaoxooctadecahydro-1H,5H,14H,19H-pyrido[2,1-i]dipyrrolo[2,1-c:2′,1′-l][1]oxa[4,7,10,13]tetraazacyclohexadecin-20-yl)-2-(3-(p-tolyl)ureido)propanamide
step yield (on macrocycle C): 31%
